# PubChem BioAssay AID1259405 – NCATS – 2018
# Assay: 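Knock-downs that lift recombinant protein yield in hamster ovary cells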 (primary screen)
# System: Chinese hamster CHO-K1 ovary cells with stable secreted eGFP expression
# Reagents: single siRNA against mouse genes, 0.8 pmol siRNA per well (2 µl of 400 nM stock)
# Timing: 3 days
# Measured: 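Per-well intracellular GFP measured by laser scanning cytometry, plus viability from ATP luminescence, each relative to plate median of non-targeting control wells, in %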
# Reading the numbers: GFP, % of control: higher = more GFP per well, higher productivity; viability (ATP), % of control: higher = more viable cells (more ATP)
# Hit rule: 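Called active when intracellular GFP, relative to negative control, is at or above 120%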
# Shown is a random part of about 50,000 deposited reagents. In the full data, about 4,000 (8%) are marked active. 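Mouse siRNA library applied to hamster cells; one well for each siRNA.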
gene knocked down,PubChem SID,"GFP, % of control","viability (ATP), % of control",call
Bcl2l13 (GeneID 94044),SID363569124,85.6,99.9,inactive
Bcl2l13 (GeneID 94044),SID363583556,64.5,70,inactive
Snrk (GeneID 20623),SID363570821,54.5,62.9,inactive
Mdn1 (GeneID 100019),SID363572750,62.8,64.5,inactive
Mdn1 (GeneID 100019),SID363578030,107,113,inactive
Mdn1 (GeneID 100019),SID363582254,103,124,inactive
Ift22 (GeneID 67286),SID363554833,75.9,73.8,inactive
Ift22 (GeneID 67286),SID363568280,57.7,69.2,inactive
Ift22 (GeneID 67286),SID363586339,67.8,79.2,inactive
C1qtnf9 (GeneID 239126),SID363552215,91.3,76.1,inactive
C1qtnf9 (GeneID 239126),SID363585351,96.6,95.9,inactive
C1qtnf9 (GeneID 239126),SID363585702,71.7,87.4,inactive
Zfp148 (GeneID 22661),SID363569243,87.5,69.5,inactive
Zfp148 (GeneID 22661),SID363583675,55.1,72.7,inactive
Oog4 (GeneID 242737),SID363554548,55,35.6,inactive
Oog4 (GeneID 242737),SID363567995,72.9,50.6,inactive
Oog4 (GeneID 242737),SID363586054,98.9,85.8,inactive
Pip4k2a (GeneID 18718),SID363570933,59.9,81.9,inactive
Uhrf2 (GeneID 109113),SID363573755,76.6,88.6,inactive
Uhrf2 (GeneID 109113),SID363581499,28.3,38.2,inactive
Uhrf2 (GeneID 109113),SID363583963,83.2,123,inactive
Rnf146 (GeneID 68031),SID363555045,164,95.1,active
Rnf146 (GeneID 68031),SID363568492,53.5,53.5,inactive
Rnf146 (GeneID 68031),SID363586551,79.7,83.9,inactive
D630028G08Rik (GeneID 320379),SID363539691,85.5,92.7,inactive
D630028G08Rik (GeneID 320379),SID363560992,84.2,50,inactive
D630028G08Rik (GeneID 320379),SID363565082,87.4,75.9,inactive
Or6e1 (GeneID 18348),SID363544519,112,80,inactive
Or6e1 (GeneID 18348),SID363550847,68.3,72.5,inactive
Or6e1 (GeneID 18348),SID363557396,107,68.6,inactive

Taken from above:
For “call”, Bcl2l13 (GeneID 94044) [SID363583556] is entered as inactive
Entry of Mdn1 (GeneID 100019) [SID363582254] in “call”: inactive
Result for Oog4 (GeneID 242737) [SID363586054] under “GFP, % of control”: 98.9

The listing continues.
gene knocked down,PubChem SID,"GFP, % of control","viability (ATP), % of control",call
Zfp53 (GeneID 24132),SID363540976,43.1,52.4,inactive
Zfp53 (GeneID 24132),SID363555603,64.5,72.7,inactive
Zfp53 (GeneID 24132),SID363565892,85.3,82.6,inactive
Zfp385c (GeneID 278304),SID363545671,76.9,71,inactive
Zfp385c (GeneID 278304),SID363549184,42,73.3,inactive
Zfp385c (GeneID 278304),SID363562990,42.2,53.5,inactive
9330175E14Rik (GeneID 320377),SID363542890,47,44.5,inactive
9330175E14Rik (GeneID 320377),SID363542950,8.41,12,inactive
9330175E14Rik (GeneID 320377),SID363546407,56.1,39.1,inactive
9330175E14Rik (GeneID 320377),SID363546467,52.2,56.9,inactive
9330175E14Rik (GeneID 320377),SID363548163,64.6,74.8,inactive
9330175E14Rik (GeneID 320377),SID363548223,64.1,81.9,inactive
Ctbp1 (GeneID 13016),SID363547881,23.2,24.6,inactive
Ctbp1 (GeneID 13016),SID363558650,54.4,66.2,inactive
Ctbp1 (GeneID 13016),SID363560408,86.5,89.7,inactive
Tesmin (GeneID 17771),SID363562321,77.6,89.5,inactive
Tesmin (GeneID 17771),SID363567459,73.9,87.7,inactive
Tesmin (GeneID 17771),SID363584816,72.5,50.3,inactive
Actn4 (GeneID 60595),SID363572181,128,82.7,active
Actn4 (GeneID 60595),SID363573941,77.4,93.2,inactive
Rab10 (GeneID 19325),SID363570272,95.8,87.7,inactive
Rab10 (GeneID 19325),SID363576608,63.1,87.7,inactive
Rab10 (GeneID 19325),SID363579776,70.7,68.8,inactive
Gimap6 (GeneID 231931),SID363540200,95.9,104,inactive
Gimap6 (GeneID 231931),SID363541952,108,64.3,inactive
Gimap6 (GeneID 231931),SID363566868,66.2,62.9,inactive
Or10a48 (GeneID 258721),SID363544974,24.5,22.4,inactive
Or10a48 (GeneID 258721),SID363551302,110,118,inactive
Or10a48 (GeneID 258721),SID363557851,52.2,56.1,inactive
